Data as given in US20080118529A1.
No constants are given. Whether binding was seen depends on the method and setting. Some entries that bind do so weakly or less than the wild type.

Chains of the proteins cited; added tags and fusions are not shown. Residues count along the entry.
UniProt P02749, residues 20-345: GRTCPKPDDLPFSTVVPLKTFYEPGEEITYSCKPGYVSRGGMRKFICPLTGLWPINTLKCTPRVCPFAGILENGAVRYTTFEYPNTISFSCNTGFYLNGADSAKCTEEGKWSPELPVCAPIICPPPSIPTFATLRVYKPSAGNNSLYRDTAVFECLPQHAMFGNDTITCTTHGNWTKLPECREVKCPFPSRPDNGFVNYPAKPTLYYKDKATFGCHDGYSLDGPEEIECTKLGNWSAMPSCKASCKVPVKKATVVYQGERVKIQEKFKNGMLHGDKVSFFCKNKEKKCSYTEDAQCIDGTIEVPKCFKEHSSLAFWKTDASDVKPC

How the values were obtained:
[1] = target: β2GPI bound to cardiolipin immobilized on the wells of an ELISA plate (UniProt P02749); test: ELISA on β2GPI bound to immobilized cardiolipin
lysozyme (ICN, 100831) = lysozyme (ICN, 100831) (UniProt P00698); test: ELISA; protein incubated with DXS500k or buffer immobilized, overlaid with tPA in 10 mM εACA
[2] = target: β2GPI immobilized directly on the wells of an ELISA plate (FIG. 3G) (UniProt P02749); test: ELISA on β2GPI immobilized directly on the plate

binding [1]: binds
binding (lysozyme (ICN, 100831)): binds
binding [2]: binds
Substance: Tissue-type plasminogen activator (tPA, Actilyse, Boehringer-Ingelheim) (from UniProt P00750 36-562) (enzyme)
